Data taken from US20240270809A1, “ORAL GLP RECEPTOR AGONISTS” (priority 2020, published 2024).
Not every detail of the peptide structures is certain; ends, links or a residue may be inferred. Positions of bridges follow the written chain, without caps; N, C: chain ends. Non-standard residues stand in square brackets, D forms with d. Residues, ends and D or L forms follow the SMILES beside them. αMeL = CC(C)C[C@](C)(N)C(=O)O; Nle = CCCC[C@H](N)C(=O)O; Aib = CC(C)(N)C(=O)O

By UniProt entry, the sequences of proteins in these tests, tags left out. Residues count along the entry.
UniProt P43220, 24-463: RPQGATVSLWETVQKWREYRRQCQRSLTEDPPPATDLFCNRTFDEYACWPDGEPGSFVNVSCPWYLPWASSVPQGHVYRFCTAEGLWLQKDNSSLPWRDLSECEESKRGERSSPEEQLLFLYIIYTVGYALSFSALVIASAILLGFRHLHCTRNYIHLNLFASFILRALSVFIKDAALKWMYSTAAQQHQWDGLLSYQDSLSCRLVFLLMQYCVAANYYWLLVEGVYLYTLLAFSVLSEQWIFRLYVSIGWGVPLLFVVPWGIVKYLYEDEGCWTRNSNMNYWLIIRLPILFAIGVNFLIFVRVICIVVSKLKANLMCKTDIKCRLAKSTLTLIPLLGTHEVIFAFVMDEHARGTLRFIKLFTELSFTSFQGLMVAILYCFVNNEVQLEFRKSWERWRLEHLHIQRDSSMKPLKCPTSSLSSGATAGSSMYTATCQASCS

What was measured:
Assay type in all cases: cell-based
human GLP2 receptor = target: T1, human GLP2 receptor (Homo sapiens, UniProt O95838); experiment: cAMP accumulation assay, functional agonism of human GLP2 receptor; conditions: HEK cells infected with human GLP2 receptor BacMam virus; HTRF cAMP
T1 construct: expressed in transfected cells; host or cells: HEK cells, BacMam virus transduction
T1 sequence (O95838 1-553): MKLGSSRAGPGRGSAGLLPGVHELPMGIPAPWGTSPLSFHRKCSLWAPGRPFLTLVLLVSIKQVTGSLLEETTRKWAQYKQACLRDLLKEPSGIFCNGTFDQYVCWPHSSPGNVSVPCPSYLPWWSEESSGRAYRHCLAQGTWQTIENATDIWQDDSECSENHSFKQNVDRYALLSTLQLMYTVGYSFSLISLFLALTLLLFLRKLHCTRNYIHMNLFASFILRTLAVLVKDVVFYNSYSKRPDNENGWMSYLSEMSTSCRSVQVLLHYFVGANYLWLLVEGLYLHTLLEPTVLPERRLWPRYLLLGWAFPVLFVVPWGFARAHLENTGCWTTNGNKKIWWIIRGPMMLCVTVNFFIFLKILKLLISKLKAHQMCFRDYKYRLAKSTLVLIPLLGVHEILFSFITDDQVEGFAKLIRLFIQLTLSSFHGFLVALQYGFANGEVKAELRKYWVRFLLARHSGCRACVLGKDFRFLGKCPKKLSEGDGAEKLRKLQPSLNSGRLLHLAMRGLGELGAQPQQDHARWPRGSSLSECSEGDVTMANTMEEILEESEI
Protocol: (§1) CAMP production upon agonist stimulation of human GLP2 or GLP1 receptor was assessed utilizing HiRange cAMP kit (Cisbio). In brief, HEK cells were infected with either human GLP2 or GLP1 receptor BacMam virus for 24 hours and frozen for later use in the assay. […] Cells were prepared in the assay buffer (HBSS (Lonza) supplemented with 0.5 mM IBMX (Tocris)). After 45 min incubation at 37° C., the reaction was stopped by addition of the HTRF detection reagents in the lysis buffer provided in the kit.

human GLP1 receptor = target: T2, human GLP1 receptor (Homo sapiens, UniProt P43220); experiment: cAMP accumulation assay, functional agonism of human GLP1 receptor; conditions: HEK cells infected with human GLP1 receptor BacMam virus; HTRF cAMP
T2 construct: expressed in transfected cells; host or cells: HEK cells, BacMam virus transduction
Protocol: as §1

mouse GLP2 receptor = target: T3, mouse GLP2 receptor (Mus musculus, UniProt Q5IXF8); experiment: cAMP accumulation assay, functional agonism of mouse GLP2 receptor; conditions: HEK cells transiently transfected with mouse GLP2 receptor; HTRF cAMP
T3 construct: expressed in transfected cells; host or cells: HEK cells, transient transfection with GeneJuice
T3 sequence (Q5IXF8 1-512): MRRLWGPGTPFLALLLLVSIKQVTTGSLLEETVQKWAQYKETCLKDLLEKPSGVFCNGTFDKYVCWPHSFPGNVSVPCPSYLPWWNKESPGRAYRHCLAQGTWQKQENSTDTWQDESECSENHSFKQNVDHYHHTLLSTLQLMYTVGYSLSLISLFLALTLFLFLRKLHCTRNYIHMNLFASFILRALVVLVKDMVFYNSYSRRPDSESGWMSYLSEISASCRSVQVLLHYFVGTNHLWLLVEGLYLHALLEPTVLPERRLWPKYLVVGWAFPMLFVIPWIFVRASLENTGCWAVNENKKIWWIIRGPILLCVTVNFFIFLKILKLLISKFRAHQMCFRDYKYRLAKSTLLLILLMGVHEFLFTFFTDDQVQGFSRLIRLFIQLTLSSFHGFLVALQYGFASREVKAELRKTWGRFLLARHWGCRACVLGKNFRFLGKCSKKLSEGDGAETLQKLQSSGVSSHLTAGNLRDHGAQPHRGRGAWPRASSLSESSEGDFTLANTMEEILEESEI
Protocol: CAMP production upon agonist stimulation of mouse GLP2 or GLP1 receptors was assessed utilizing HiRange cAMP kit (Cisbio). In brief, HEK cells were transiently transfected for 24 hours with cDNA using GeneJuice Transfection reagent (EMD Millipore) and frozen at −80° C. for later use in the assay. On the day, various concentrations of compounds were dispensed using ECHO-555 (LabCyte) to a total volume of 100 nl into a low volume 384-well Proxi plate (Perkin Elmer) followed by addition of 10 μl of cell suspension delivering 8000 cells per well. Cells were prepared in the assay buffer (HBSS (Lonza) supplemented with 0.5 mM IBMX (Tocris)). After 45 min incubation at 37° C., the reaction was stopped by addition of the HTRF detection reagents in the lysis buffer provided in the kit. Following 1-hour incubation at RT, plates were read on Pherastar FS (BMG Labtech, Inc.) using standard HTRF settings. Dotmatics Studies software was used for calculation of pEC50 values by fitting data to a four-parameter concentration response curve.

SMILES | Human GLP-2R agonist cAMP pEC50 (human GLP2 receptor) | Human GLP-1R agonist cAMP pEC50 (human GLP1 receptor) | Mouse GLP-2R agonist cAMP pEC50 (mouse GLP2 receptor)
CCCC[C@H](NC(=O)[C@H](CCC(=O)O)NC(=O)[C@@H]1CC(=O)NCCCC[C@H](NC(=O)[C@H](CC(=O)O)NC(=O)C(C)(C)NC(=O)[C@@H](N)Cc2c[nH]cn2)C(=O)N[C@@H](CO)C(=O)N[C@@H](Cc2ccccc2)C(=O)N[C@@H](CO)C(=O)N1)C(=O)N[C@H](Cc1ccccc1)C(=O)N[C@H](C(=O)N[C@@](C)(CC(C)C)C(=O)N[C@@H](CC(C)C)C(=O)N[C@@H](CC(=O)O)C(=O)N[C@H]1CCC(=O)NCCCC[C@@H](C(=O)N[C@@H](CC(=O)O)C(=O)N[C@@H](Cc2ccccc2)C(=O)N[C@H](C(=O)N[C@H]2CCC(=O)NCCCC[C@@H](C(=O)N[C@H](C(=O)N[C@@H](CCCCN)C(N)=O)[C@@H](C)O)NC(=O)[C@H]([C@@H](C)CC)NC(=O)[C@H](CC(C)C)NC(=O)[C@H](Cc3c[nH]c4ccccc34)NC2=O)[C@@H](C)CC)NC(=O)[C@H](C)NC(=O)[C@H](C)NC(=O)[C@H](CCCCN)NC1=O)[C@@H](C)O [Example 21] (H-H[Aib]DKSFSDE[Nle][dF]T[αMeL]LDEKAAKDFIEWLIKTK-NH2; lactam 4-8, 16-20, 24-28; N-terminus and C-terminus assumed) | 10.8 | 10.3 | –
CCCC[C@H](NC(=O)[C@H](CCC(=O)O)NC(=O)[C@@H]1CC(=O)NCCCC[C@H](NC(=O)[C@H](CC(=O)O)NC(=O)C(C)(C)NC(=O)[C@@H](N)Cc2c[nH]cn2)C(=O)N[C@@H](CO)C(=O)N[C@@H](Cc2ccccc2)C(=O)N[C@@H](CO)C(=O)N1)C(=O)N[C@H](Cc1ccccc1)C(=O)N[C@H](C(=O)N[C@@](C)(CC(C)C)C(=O)N[C@@H](CC(C)C)C(=O)N[C@@H](CC(=O)O)C(=O)N[C@H]1CCC(=O)NCCCC[C@@H](C(=O)N[C@@H](CC(=O)O)C(=O)N[C@@H](Cc2ccccc2)C(=O)N[C@H](C(=O)N[C@H]2CCC(=O)NCCCC[C@@H](C(=O)N[C@H](C(=O)N[C@@H](CCCCN)C(=O)N3CCC[C@H]3C(N)=O)[C@@H](C)O)NC(=O)[C@H]([C@@H](C)CC)NC(=O)[C@H](CC(C)C)NC(=O)[C@H](Cc3c[nH]c4ccccc34)NC2=O)[C@@H](C)CC)NC(=O)[C@H](C)NC(=O)[C@H](C)NC(=O)[C@H](CCCCN)NC1=O)[C@@H](C)O [Example 30] (H-H[Aib]DKSFSDE[Nle][dF]T[αMeL]LDEKAAKDFIEWLIKTKP-NH2; lactam 4-8, 16-20, 24-28; N-terminus and C-terminus assumed) | 10.6 | 10.3 | 8.9
CCCC[C@H](NC(=O)[C@H](CCC(=O)O)NC(=O)[C@@H]1CC(=O)NCCCC[C@H](NC(=O)[C@H](CC(=O)O)NC(=O)C(C)(C)NC(=O)[C@@H](N)Cc2c[nH]cn2)C(=O)N[C@@H](CO)C(=O)N[C@@H](Cc2ccccc2)C(=O)N[C@@H](CO)C(=O)N1)C(=O)N[C@H](Cc1ccccc1)C(=O)N[C@H]1CCC(=O)NCCCC[C@@H](C(=O)N[C@@H](CCCCN)C(=O)N[C@@H](C)C(=O)N[C@@H](C)C(=O)NC(C)(C)C(=O)N[C@@H](CC(=O)O)C(=O)N[C@@H](Cc2ccccc2)C(=O)N[C@H](C(=O)N[C@H]2CCC(=O)NCCCC[C@@H](C(=O)N[C@H](C(=O)N[C@@H](CCCCN)C(N)=O)[C@@H](C)O)NC(=O)[C@H]([C@@H](C)CC)NC(=O)[C@H](CC(C)C)NC(=O)[C@H](Cc3c[nH]c4ccccc34)NC2=O)[C@@H](C)CC)NC(=O)[C@H](CC(=O)O)NC(=O)[C@H](CC(C)C)NC(=O)[C@H]([C@@H](C)CC)NC1=O [Example 5] (H-H[Aib]DKSFSDE[Nle][dF]EILDKKAA[Aib]DFIEWLIKTK-NH2; lactam 4-8, 12-16, 24-28 (inferred); N-terminus and C-terminus assumed) | 9.9 | 9.7 | –
